Reference: the supplement of paper PMC10849652
The other results are listed elsewhere or left out.

By UniProt entry, the sequences of proteins in these tests, tags left out. Where a name states a change or a piece, a line headed by the entry shows the natural chain unless it says otherwise.
UniProt O15230: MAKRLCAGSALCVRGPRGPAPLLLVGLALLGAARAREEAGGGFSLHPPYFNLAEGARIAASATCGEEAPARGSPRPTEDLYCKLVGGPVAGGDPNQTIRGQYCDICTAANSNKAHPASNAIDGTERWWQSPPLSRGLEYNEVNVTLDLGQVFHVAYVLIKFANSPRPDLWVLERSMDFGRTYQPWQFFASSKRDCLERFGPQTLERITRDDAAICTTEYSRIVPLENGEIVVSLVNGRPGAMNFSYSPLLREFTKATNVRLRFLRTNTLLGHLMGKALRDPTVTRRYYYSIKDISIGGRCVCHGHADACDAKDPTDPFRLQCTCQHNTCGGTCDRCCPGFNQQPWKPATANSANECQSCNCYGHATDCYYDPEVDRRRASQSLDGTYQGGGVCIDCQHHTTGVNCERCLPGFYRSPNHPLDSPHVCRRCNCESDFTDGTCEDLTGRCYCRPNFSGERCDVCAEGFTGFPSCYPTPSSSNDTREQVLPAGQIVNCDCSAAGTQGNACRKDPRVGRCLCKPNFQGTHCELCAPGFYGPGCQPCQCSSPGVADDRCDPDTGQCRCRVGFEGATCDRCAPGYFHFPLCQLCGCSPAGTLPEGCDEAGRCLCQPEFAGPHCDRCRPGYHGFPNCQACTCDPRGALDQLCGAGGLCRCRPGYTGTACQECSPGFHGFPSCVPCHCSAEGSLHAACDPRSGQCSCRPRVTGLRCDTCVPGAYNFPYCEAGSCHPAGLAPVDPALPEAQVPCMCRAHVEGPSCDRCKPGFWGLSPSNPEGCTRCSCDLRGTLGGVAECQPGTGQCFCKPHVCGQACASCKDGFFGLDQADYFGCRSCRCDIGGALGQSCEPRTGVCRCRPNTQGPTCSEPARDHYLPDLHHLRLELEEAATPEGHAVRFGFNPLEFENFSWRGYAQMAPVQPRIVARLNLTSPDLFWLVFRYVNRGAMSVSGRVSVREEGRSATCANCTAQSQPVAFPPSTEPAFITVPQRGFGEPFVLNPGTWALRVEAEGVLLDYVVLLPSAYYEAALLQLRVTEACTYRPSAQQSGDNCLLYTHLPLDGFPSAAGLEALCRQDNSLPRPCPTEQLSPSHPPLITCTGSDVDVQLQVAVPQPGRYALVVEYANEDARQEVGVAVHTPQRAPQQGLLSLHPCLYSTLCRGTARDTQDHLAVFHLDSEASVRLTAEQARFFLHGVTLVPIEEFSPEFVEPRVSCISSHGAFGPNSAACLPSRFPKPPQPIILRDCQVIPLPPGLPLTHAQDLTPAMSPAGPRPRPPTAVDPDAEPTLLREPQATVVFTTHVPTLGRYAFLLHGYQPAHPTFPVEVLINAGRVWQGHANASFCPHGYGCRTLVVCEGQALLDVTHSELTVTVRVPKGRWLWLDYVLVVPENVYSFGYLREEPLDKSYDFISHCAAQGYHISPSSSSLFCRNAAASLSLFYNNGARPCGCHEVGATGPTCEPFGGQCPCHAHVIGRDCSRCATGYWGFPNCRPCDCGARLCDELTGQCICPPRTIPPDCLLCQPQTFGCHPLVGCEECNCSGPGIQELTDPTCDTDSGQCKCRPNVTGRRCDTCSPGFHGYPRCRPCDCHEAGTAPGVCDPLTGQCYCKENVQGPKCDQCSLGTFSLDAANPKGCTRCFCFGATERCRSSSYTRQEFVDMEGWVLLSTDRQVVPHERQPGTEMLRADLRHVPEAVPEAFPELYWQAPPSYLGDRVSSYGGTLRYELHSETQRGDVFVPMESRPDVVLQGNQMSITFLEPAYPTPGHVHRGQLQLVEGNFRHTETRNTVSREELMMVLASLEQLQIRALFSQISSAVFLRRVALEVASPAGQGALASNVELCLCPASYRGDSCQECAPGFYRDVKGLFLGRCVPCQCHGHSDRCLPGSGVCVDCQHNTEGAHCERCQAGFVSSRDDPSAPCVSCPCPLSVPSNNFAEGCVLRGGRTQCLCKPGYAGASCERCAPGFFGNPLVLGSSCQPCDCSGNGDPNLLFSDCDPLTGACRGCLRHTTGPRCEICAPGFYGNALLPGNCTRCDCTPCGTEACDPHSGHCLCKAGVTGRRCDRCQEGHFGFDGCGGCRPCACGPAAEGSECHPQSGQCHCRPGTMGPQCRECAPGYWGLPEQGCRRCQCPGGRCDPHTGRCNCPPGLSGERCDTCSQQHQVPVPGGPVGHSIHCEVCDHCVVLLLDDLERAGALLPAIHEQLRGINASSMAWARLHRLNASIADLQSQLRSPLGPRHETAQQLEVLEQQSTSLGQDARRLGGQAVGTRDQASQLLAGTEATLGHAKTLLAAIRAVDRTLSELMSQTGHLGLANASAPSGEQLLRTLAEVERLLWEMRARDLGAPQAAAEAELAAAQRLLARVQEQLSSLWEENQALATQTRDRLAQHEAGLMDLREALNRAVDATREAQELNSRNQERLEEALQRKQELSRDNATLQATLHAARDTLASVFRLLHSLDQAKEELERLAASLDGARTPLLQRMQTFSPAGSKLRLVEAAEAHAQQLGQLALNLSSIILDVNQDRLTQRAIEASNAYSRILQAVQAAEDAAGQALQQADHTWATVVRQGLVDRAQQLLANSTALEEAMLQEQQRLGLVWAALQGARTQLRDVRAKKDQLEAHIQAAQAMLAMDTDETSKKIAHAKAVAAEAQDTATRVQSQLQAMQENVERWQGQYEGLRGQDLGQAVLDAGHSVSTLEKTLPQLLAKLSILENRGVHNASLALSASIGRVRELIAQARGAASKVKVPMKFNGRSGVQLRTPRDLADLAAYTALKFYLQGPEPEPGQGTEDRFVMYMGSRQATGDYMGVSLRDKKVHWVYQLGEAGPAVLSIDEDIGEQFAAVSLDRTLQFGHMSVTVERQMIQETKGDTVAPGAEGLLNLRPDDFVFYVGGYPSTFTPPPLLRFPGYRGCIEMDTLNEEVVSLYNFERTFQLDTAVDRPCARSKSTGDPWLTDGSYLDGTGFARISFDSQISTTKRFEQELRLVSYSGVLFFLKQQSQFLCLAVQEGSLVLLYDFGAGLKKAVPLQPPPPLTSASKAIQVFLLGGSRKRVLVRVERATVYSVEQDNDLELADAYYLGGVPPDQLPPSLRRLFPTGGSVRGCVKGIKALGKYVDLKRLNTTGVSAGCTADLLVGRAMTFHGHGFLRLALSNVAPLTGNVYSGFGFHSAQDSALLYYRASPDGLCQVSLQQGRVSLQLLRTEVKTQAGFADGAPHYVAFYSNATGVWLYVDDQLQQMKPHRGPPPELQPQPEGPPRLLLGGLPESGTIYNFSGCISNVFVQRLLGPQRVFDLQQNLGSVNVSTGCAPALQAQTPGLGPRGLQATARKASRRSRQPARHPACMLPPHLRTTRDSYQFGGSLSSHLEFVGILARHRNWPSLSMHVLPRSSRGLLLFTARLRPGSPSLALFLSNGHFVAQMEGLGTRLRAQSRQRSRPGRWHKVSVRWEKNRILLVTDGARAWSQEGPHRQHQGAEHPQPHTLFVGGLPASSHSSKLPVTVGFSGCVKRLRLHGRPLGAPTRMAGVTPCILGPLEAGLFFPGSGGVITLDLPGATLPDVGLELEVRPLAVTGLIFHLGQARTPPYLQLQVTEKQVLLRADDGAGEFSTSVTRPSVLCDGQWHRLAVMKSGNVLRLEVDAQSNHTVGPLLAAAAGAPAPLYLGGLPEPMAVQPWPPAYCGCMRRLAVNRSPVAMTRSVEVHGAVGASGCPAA
UniProt Q6ZV70: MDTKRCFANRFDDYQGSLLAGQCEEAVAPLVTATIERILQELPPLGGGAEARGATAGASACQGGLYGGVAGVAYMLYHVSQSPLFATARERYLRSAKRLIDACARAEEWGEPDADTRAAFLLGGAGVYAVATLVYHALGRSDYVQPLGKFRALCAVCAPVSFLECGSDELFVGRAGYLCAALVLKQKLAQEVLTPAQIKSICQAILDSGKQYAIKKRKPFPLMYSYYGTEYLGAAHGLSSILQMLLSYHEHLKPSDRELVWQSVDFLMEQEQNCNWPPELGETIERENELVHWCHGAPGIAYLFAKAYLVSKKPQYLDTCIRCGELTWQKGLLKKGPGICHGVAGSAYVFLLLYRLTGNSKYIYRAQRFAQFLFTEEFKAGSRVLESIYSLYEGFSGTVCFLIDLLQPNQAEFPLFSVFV
UniProt Q8IZD2: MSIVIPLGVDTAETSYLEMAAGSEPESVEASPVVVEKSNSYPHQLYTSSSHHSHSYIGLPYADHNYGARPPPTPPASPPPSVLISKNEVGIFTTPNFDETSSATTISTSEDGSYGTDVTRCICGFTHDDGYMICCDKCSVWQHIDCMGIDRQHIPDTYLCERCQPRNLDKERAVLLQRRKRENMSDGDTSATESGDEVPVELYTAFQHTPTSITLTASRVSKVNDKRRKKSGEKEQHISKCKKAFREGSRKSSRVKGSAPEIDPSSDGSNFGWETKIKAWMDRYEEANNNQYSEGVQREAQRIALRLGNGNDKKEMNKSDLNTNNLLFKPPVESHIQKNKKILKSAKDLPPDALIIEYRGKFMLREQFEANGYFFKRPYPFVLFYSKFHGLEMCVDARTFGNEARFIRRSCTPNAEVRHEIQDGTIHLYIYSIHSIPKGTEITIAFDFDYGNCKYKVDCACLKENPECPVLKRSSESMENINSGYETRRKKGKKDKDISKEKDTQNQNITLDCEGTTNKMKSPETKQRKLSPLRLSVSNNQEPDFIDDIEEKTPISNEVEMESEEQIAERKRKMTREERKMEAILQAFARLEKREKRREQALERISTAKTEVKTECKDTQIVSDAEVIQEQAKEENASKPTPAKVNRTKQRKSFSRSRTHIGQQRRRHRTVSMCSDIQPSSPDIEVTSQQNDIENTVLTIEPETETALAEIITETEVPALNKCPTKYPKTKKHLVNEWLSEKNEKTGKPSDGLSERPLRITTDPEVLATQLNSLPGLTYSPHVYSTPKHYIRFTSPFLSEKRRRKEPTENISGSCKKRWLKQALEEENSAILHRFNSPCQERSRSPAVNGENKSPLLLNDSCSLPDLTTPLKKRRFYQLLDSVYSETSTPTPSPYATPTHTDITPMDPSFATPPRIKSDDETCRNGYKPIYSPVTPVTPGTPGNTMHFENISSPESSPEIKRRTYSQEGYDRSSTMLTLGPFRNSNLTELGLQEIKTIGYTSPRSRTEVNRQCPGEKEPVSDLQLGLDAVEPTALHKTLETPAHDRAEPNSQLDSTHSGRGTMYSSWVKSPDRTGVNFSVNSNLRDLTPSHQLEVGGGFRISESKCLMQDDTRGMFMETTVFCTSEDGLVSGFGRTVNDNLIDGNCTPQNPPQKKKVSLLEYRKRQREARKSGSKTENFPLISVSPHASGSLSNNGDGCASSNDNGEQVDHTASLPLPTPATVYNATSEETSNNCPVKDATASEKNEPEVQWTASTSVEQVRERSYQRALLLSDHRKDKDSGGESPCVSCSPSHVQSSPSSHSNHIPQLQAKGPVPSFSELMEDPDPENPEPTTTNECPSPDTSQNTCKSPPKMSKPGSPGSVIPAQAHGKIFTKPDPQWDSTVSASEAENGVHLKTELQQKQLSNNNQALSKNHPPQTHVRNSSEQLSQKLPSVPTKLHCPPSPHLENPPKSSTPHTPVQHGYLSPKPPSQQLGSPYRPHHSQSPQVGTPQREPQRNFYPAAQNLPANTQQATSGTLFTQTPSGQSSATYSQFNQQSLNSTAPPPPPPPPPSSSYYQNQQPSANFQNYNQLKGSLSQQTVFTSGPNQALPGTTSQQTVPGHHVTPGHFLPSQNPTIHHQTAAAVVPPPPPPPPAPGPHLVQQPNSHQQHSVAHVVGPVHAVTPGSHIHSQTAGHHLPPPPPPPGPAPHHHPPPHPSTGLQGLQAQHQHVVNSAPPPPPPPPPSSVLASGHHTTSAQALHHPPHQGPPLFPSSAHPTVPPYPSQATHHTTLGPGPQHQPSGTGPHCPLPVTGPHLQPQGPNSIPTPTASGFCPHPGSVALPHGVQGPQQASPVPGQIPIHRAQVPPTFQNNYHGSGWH
UniProt Q8NA19: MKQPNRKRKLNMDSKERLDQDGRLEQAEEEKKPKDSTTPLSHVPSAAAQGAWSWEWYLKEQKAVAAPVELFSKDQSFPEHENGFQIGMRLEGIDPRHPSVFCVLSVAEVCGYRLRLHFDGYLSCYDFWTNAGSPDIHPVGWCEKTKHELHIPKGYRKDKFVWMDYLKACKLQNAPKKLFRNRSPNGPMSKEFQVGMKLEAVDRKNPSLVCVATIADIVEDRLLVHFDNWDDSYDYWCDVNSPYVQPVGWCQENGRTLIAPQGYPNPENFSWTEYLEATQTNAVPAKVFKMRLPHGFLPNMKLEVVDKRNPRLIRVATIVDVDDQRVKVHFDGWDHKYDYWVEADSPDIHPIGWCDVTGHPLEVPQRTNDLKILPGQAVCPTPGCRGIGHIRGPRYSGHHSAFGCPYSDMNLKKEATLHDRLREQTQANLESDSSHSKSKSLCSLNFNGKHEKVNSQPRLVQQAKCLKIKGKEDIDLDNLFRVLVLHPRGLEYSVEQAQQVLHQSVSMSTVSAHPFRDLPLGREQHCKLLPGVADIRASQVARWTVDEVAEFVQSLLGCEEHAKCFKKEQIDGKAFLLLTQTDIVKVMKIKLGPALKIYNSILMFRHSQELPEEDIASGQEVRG

Legend:
Assay in all cases: log2 fold change, soluble protein after heating vs DMSO (PISA); higher = thermal stabilisation; K562 lysate, 10 uM; active = over 0.2 and 3.5 SD of the protein, either way, in both replicates (recomputed)
[1] = compound: CN1CC[C@H](c2c(O)cc(O)c3c(=O)cc(-c4ccccc4Cl)oc23)[C@H](O)C1 [alvocidib]
Outline: (§1)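 Following dounce homogenisation of K562 pellets in PBS pH 7.4 with 1 mM MgCl2, crude extract at 1 mg/mL protein was incubated for 30 min with 10 μM compound. Aliquots were then heated for 3 min over 48°C-58°C and pooled, NP-40 was added to 0.5% at 4°C, and soluble protein was recovered as the supernatant at 21,000xg for 90 min. Channel-sum-equalised TMTpro 16plex LC-MS/MS quantified this protein. Each value, from duplicates, is a log-two fold change in thermal stability relative to solvent controls.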

[2] = compound: CN1CCc2c(c3ccccc3n2Cc2ccc(C(=O)NO)cc2)C1 [Tubastatin A]
Outline: as §1

[3] = compound: CNC(=O)C1=CC=CC=C1NC2=NC(=NC=C2Cl)NC3=C(C=C(C=C3)N4CCOCC4)OC
Outline: as §1

[4] = compound: CNC(=O)c1ccc(Nc2ncc(C(F)(F)F)c(NCc3nccnc3N(C)S(C)(=O)=O)n2)cc1 [defactinib]
Outline: as §1

[5] = compound: CNc1nc(-c2ccc3c(N)n[nH]c3c2)cc(N2C[C@@H](C(=O)NC3CCCCC3)CC[C@H]2C)n1
Outline: as §1

[6] = compound: COC(=O)N[C@@H](C)CNc1nccc(-c2cn(C(C)C)nc2-c2cc(Cl)cc(NS(C)(=O)=O)c2F)n1 [encorafenib]
Outline: as §1

[7] = compound: COC(=O)[C@H](CCSC)NC(=O)C1=C(C=C(C=C1)NC[C@H](CS)N)C2=CC=CC=C2
Outline: as §1

[8] = compound: COc1cc(Nc2ncc3c(n2)-c2ccc(Cl)cc2C(c2c(F)cccc2OC)=NC3)ccc1C(=O)O [alisertib]
Outline: as §1

[9] = compound: COc1cc2ncnc(Nc3ccc(F)c(Cl)c3)c2cc1OCCCN1CCOCC1 [gefitinib]
Outline: as §1

[10] = compound: C[C@@H](Oc1cc(-c2cnn(C3CCNCC3)c2)cnc1N)c1c(Cl)ccc(F)c1Cl [crizotinib]
Outline: as §1

[11] = compound: C[C@H](C1=CC=C(C=C1)C(=O)NC2=C3C=CNC3=NC=C2)N
Outline: as §1

[12] = compound: C[C@H](Nc1ncnc2nc[nH]c12)c1cc2cccc(Cl)c2c(=O)n1-c1ccccc1 [duvelisib]
Outline: as §1

[13] = compound: Cc1cc(Nc2cc(CN3CCOCC3)c3nc(C)c(Cc4ccc(Cl)cc4F)n3n2)n[nH]1 [gandotinib]
Outline: as §1

[14] = compound: Cc1cc(Nc2cc(N3CCN(C)CC3)nc(Sc3ccc(NC(=O)C4CC4)cc3)n2)n[nH]1 [tozasertib]
Outline: as §1

[15] = compound: Cc1ccc(-n2nc(C(C)(C)C)cc2NC(=O)Nc2ccc(OCCN3CCOCC3)c3ccccc23)cc1 [doramapimod]
Outline: as §1

[16] = compound: Cc1cccc(CC(=O)N2CCc3c2ccc(-c2cn(C)c4ncnc(N)c24)c3F)n1
Outline: as §1

[17] = compound: CS(=O)(=O)N1CCN(Cc2cc3nc(-c4cccc5[nH]ncc45)nc(N4CCOCC4)c3s2)CC1 [pictilisib]
Outline: as §1

[18] = compound: Cc1ccc(NC(=O)c2ccc(CN3CC[C@H](N(C)C)C3)c(C(F)(F)F)c2)cc1Nc1nccc(-c2cncnc2)n1 [bafetinib]
Outline: as §1

[19] = compound: COc1cc2nc(-c3cc(F)ccc3O)nc(N[C@@H]3CNC[C@H]3C(C)(C)O)c2cc1OC
Outline: as §1

[20] = compound: CS(=O)(=O)CCNCc1ccc(-c2ccc3ncnc(Nc4ccc(OCc5cccc(F)c5)c(Cl)c4)c3c2)o1 [lapatinib]
Outline: as §1

Measured: log2 fold change

KIF16B isoform 2 (UniProt Q96L93)
inactive: [1] -0.027 | [2] -0.191 | [3] 0.015 | [4] -0.054 | [5] 0.123 | [6] 0.059 | [7] 0.141 | [8] -0.062 | [9] -0.17 | [10] 0.005 | [11] -0.118 | [12] 0.05 | [13] -0.009 | [14] 0.024 | [15] -0.044 | [16] 0.223

LAMA5 (UniProt O15230)
inactive: [1] 0.065 | [2] -0.03 | [3] 0.063 | [5] 0.01 | [6] 0.07 | [7] 0.077 | [17] -0.329 | [10] -0.073 | [11] 0.039 | [12] -0.075 | [13] 0.013 | [14] -0.215 | [15] 0.04 | [18] 0.025 | [16] 0.066

KIFC3 isoform 6 (UniProt Q9BVG8)
inactive: [3] 0.003 | [4] -0.255 | [5] 0.308 | [6] -0.053 | [7] 0.04 | [17] -0.127 | [10] -0.21 | [12] 0.089 | [13] 0.111 | [14] -0.111 | [15] -0.034 | [18] -0.221 | [16] 0.296
active: [1] -0.786 | [11] -1.85

KDM4C (UniProt Q9H3R0)
inactive: [1] -0.025 | [2] -0.212 | [5] -0.187 | [8] -0.066 | [9] 0.079 | [17] -0.205 | [11] 0.054 | [12] -0.179 | [13] -0.015 | [18] 0.087 | [16] -0.155

Taken from the listing (2 entries):
LAMA5 (UniProt O15230)
inactive: [1] 0.065 | [2] -0.03 | [3] 0.063 | [5] 0.01 | [6] 0.07 | [7] 0.077 | [17] -0.329 | [10] -0.073 | [11] 0.039 | [12] -0.075 | [13] 0.013 | [14] -0.215 | [15] 0.04 | [18] 0.025 | [16] 0.066

KIFC3 isoform 6 (UniProt Q9BVG8)
inactive: [3] 0.003 | [4] -0.255 | [5] 0.308 | [6] -0.053 | [7] 0.04 | [17] -0.127 | [10] -0.21 | [12] 0.089 | [13] 0.111 | [14] -0.111 | [15] -0.034 | [18] -0.221 | [16] 0.296
active: [1] -0.786 | [11] -1.85

(listing goes on)

KDM4B (UniProt O94953)
inactive: [1] -0.077 | [2] -0.007 | [3] -0.064 | [4] 0 | [5] -0.074 | [6] 0.056 | [7] 0.092 | [8] 0.03 | [9] 0.167 | [10] 0 | [11] 0.102 | [12] 0.153 | [13] 0.044 | [14] 0.115 | [15] 0.082 | [16] 0

KIF1C (UniProt O43896)
inactive: [1] -0.004 | [2] -0.055 | [3] -0.074 | [4] 0.083 | [6] -0.213 | [7] 0.224 | [8] -0.09 | [19] -0.007 | [9] 0.031 | [20] 0.029 | [17] 0.022 | [10] -0.132 | [11] -0.197 | [13] 0.022 | [14] -0.154 | [15] 0 | [18] 0.007 | [16] 0.168

KIF20A (UniProt O95235)
inactive: [1] -0.012 | [2] -0.177 | [4] 0.043 | [5] 0.054 | [6] -0.049 | [7] 0.156 | [8] -0.138 | [9] 0.009 | [17] -0.219 | [10] -0.119 | [11] -0.031 | [12] 0.008 | [13] 0.109 | [14] 0.041 | [15] 0.06 | [18] -0.223 | [16] 0.116

LANCL3 (UniProt Q6ZV70)
inactive: [1] -0.092 | [4] 0.056 | [6] 0.012 | [7] 0.183 | [8] 0.058 | [9] -0.051 | [17] -0.067 | [11] -0.023 | [13] -0.035 | [14] -0.041 | [18] -0.104 | [16] 0.077

LAPTM4B (UniProt Q86VI4)
inactive: [1] -0.161 | [2] 0.083 | [3] -0.029 | [17] -0.015 | [11] -0.263 | [13] 0.171 | [18] -0.038 | [16] 0.217

KMT2E (UniProt Q8IZD2)
inactive: [1] 0.074 | [2] -0.031 | [3] -0.008 | [4] -0.15 | [5] -0.018 | [6] -0.055 | [7] 0.027 | [8] -0.069 | [9] 0.045 | [10] -0.239 | [11] -0.23 | [12] 0.011 | [13] 0.063 | [14] 0.054 | [15] -0.001 | [16] -0.42

L3MBTL4 (UniProt Q8NA19)
inactive: [1] -0.02 | [2] -0.011 | [4] 0.02 | [6] -0.058 | [7] 0.156 | [8] -0.032 | [19] 0.019 | [9] -0.12 | [20] -0.105 | [17] -0.061 | [10] -0.156 | [11] -0.081 | [13] 0.063 | [14] -0.089 | [15] 0.005 | [18] 0.007 | [16] 0.094

KIF20B isoform 2 (UniProt Q96Q89)
inactive: [1] -0.1 | [2] -0.025 | [3] -0.064 | [4] -0.013 | [5] 0.153 | [6] -0.098 | [7] 0.063 | [8] 0.03 | [9] -0.209 | [10] -0.054 | [11] -0.022 | [12] -0.051 | [13] 0.113 | [14] 0.024 | [15] 0.228 | [16] 0.073

KPNA5 (UniProt O15131)
inactive: [3] -0.003 | [8] -0.096 | [9] 0.047

KMT5A (UniProt Q9NQR1)
inactive: [1] 0.009 | [11] 0.164 | [13] -0.187 | [16] -0.256

KPNB1 (UniProt J3QKQ5)
inactive: [2] 0.158

KMT2D (UniProt O14686)
inactive: [5] 0.059 | [12] -0.02
